Laboratory results as given in PubChem BioAssay AID1671190 (National Center for Advancing Translational Sciences (NCATS), 2021).
Screen size: about 580,000 compounds; about 6,100 (1.1%) were called active. The shares of active, inactive and inconclusive entries below differ from those in the screen. Calls follow the shape of the dose curve; as a rule, active = well fitted inhibition curve with a large enough effect; inconclusive = small, poorly fitted or top-dose-only effect, or another doubt; inactive = no such curve, though single readings can be large or run the other way. A potency beside an inconclusive call is a rough fit, not a confirmed value.
% is scaled to controls: 0 for no effect and ±100 for the full control effect; potency is read from the fitted curve at half-maximal effect.

Protein sequences, listed by entry. Tags and fused reporters are not part of them.
UniProt P18054, whole entry, looked up: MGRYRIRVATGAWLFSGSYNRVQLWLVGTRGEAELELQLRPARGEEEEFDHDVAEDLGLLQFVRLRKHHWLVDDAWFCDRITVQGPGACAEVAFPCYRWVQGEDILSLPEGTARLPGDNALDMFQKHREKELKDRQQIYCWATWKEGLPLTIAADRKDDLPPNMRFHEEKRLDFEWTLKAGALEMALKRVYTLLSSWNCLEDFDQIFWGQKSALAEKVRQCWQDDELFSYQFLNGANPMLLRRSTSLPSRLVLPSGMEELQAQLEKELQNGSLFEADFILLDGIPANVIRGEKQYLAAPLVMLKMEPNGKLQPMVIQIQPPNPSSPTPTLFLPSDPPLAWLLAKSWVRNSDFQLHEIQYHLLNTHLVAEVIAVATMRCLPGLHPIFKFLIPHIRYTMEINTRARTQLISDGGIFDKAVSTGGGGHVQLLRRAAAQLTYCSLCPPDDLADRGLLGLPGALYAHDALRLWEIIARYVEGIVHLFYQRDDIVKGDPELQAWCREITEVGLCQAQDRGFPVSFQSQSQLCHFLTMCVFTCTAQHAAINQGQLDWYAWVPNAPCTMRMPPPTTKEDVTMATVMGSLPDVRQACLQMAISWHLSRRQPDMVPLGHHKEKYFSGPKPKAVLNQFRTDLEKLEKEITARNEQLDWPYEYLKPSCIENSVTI

The compounds below were run against Polyunsaturated fatty acid lipoxygenase ALOX12 (Homo sapiens) (UniProt P18054) (assay: Primary qHTS assay for inhibitors of human arachidonate 12S-lipoxygenase (ALOX12): Round 2). Conditions: purified 12hLO, xylenol orange hydroperoxide absorbance; activity change, negative = inhibition: at 108 µM (top of the series) unless noted.
How it was run: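 Purified human 12hLO (150 nM final) in 25 mM Hepes, 0.01% Triton X-100, pH 7.0 was preincubated 15 min at room temperature with compound. Then 40 uM arachidonic acid was added, 30 min. Hydroperoxide was read by Fe-XO absorbance ratio 573/405 nm.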
`CC(=O)c1cccc(Nc2nc(-c3ccccc3)nc3ccccc23)c1` was tested, and the Potency was inconclusive: 39.8 µM [inhibitor, partial curve, poor fit]. For `O=C(NC1CCCCCC1)c1cc(-c2cccc(Br)c2)nc2ccccc12`, the “activity change, negative = inhibition” value was inactive: 11.4%. For `CC(C)NC(=O)C[C@@H]1C[C@H]2O[C@H](CNC3CCCC3)[C@@H](O)[C@H]2O1`, the Potency was inconclusive: 112 µM [inhibitor, partial curve, poor fit]. For `Cc1cccc(OC[C@H]2C[C@@H](N(C)C)[C@H](O)[C@@H]2O)n1`, the Potency was inconclusive: 28.2 µM [inhibitor, single point]. With `CCOc1ccccc1NC(=S)N(CCCN1CCOCC1)Cc1cn(C)c2ccccc12` the “activity change, negative = inhibition” value was inactive: -12.2%. `Cc1ccc(CNC(=O)c2cccc(-c3cnc4ccccc4c3)c2)cc1` was tested, and the Potency was inconclusive: 50.1 µM [inhibitor, partial curve, poor fit]. In the case of `N#Cc1cccnc1N1CCN(C(C(=O)O)c2c[nH]c3ccc(Cl)cc23)CC1` (stereo not drawn), the “activity change, negative = inhibition” value is reported as inactive: 0.34%. For `Cc1cc(S(=O)(=O)Nc2ccc(O)c(Sc3nc4ccccc4s3)c2)ccc1Cl`, the Potency was inconclusive: 31.6 µM [inhibitor, partial curve]. With `CN(C)c1ccc(C(CNS(=O)(=O)c2ccc(F)cc2F)N2CCOCC2)cc1` (stereo not drawn) the Potency was inconclusive: 44.7 µM [inhibitor, partial curve, poor fit]. With `CC(=O)Nc1ccc(S(=O)(=O)N[C@H]2CO[C@H]3[C@@H]2OC[C@@H]3n2nnnc2Oc2ccc(-n3cncn3)cc2)cc1` the Potency was inconclusive: 3.98 µM [inhibitor, full curve, poor fit]. With `O=S(=O)(Cc1cc(Cl)nc(-c2ccccc2)n1)c1ccccc1` the “activity change, negative = inhibition” value was inactive: 10.1%. In the case of `CC1CCN(c2ccc(NC(=O)c3ccccc3SC3CCS(=O)(=O)C3)cc2)CC1` (stereo not drawn), the Potency is reported as active: 6.31 µM. In the case of `CCc1ccc(CN(Cc2cn[nH]c2-c2ccc(OC)cc2)C(=O)Nc2ccc(Br)cc2)cc1`, the “activity change, negative = inhibition” value is reported as inactive: -1.8%. With `O=C(NCCCn1ccnc1)c1sc2cc([N+](=O)[O-])ccc2c1Cl` the Potency was inconclusive: 0.282 µM [inhibitor, full curve, poor fit]. `Cc1ccccc1NC(=O)c1c(C)nc(SCC(=O)OCc2ccccc2)c(C#N)c1-c1ccc(F)cc1` was tested, and the “activity change, negative = inhibition” value was inactive: -13.9%. `Cc1cc(C)n(S(=O)(=O)c2cccc([N+](=O)[O-])c2)n1` was tested, and the Potency was inconclusive: 35.5 µM [inhibitor, partial curve, poor fit]. With `O=C(O)CCS(=O)(=O)c1nc(-c2cccs2)cc(C(F)(F)F)n1` the “activity change, negative = inhibition” value was inactive: -18.7%. In the case of `CN=C1S/C(=C\c2ccc(O)c(OC)c2)C(=O)N1C`, the Potency is reported as inconclusive: 28.2 µM [inhibitor, single point].
